A: 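Protease assay of ClpP1P2, read by the AMC dye that it sets free. Target: ClpP1P2, Mycobacterium tuberculosis (UniProt P9WPC5 and UniProt P9WPC3). Compounds at 50 µM. Higher reads as stronger inhibition, judged from the few compounds that gave an IC50. Most other retested compounds had strongly negative values. Size under these conditions: about 69,000 compounds, about 10 of them at 50% or above in at least one test.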
B: 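Coenzyme A biosynthesis protein CoaBC, Mycobacterium tuberculosis (UniProt P9WNZ1). Enzyme assay of CoaBC with a phosphate dye (Biomol Green) read at 650 nm. Concentration: 30 µM. Higher reads as stronger inhibition, judged from the few compounds that gave an IC50. Most strong results did not repeat in a second test. Of about 67,000 compounds tested this way, about 40 (0.06%) reached 50% or more in at least one test.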
C: 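Enzyme assay of the cytosolic lysyl-tRNA synthetase in 384-well plates, read by luminescence. Target: Lysine-tRNA ligase, Plasmodium falciparum 3D7 (UniProt Q8IDJ8). Tested at 30 µM. Higher reads as stronger inhibition, judged from the few compounds that gave an IC50. Size under these conditions: about 69,000 compounds, about 49 of them at 50% or above in at least one test.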
D: 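Cell assay of Leishmania donovani living inside macrophages; the read-out is not stated. Compounds at 30 µM. Higher reads as stronger inhibition (inferred: compounds with an IC50 in retests scored well above the rest). About 69,000 compounds were tested under these conditions; 1.5% (about 1,000) showed 50% or more at least once.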

By UniProt entry, the sequences of proteins in these tests, tags left out. Residues count along the entry.
UniProt P9WPC5, whole entry: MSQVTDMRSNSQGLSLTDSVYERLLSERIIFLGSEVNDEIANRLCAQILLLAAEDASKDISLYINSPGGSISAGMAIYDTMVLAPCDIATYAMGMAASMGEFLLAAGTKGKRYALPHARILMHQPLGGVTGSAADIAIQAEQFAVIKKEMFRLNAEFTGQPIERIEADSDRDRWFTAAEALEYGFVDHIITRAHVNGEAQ
UniProt P9WPC3, whole entry partner: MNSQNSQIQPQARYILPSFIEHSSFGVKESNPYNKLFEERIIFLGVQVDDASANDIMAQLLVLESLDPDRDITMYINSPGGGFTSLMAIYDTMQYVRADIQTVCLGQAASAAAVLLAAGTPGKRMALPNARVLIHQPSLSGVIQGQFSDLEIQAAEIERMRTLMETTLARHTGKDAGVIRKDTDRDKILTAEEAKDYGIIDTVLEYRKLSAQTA
UniProt P9WNZ1, whole entry: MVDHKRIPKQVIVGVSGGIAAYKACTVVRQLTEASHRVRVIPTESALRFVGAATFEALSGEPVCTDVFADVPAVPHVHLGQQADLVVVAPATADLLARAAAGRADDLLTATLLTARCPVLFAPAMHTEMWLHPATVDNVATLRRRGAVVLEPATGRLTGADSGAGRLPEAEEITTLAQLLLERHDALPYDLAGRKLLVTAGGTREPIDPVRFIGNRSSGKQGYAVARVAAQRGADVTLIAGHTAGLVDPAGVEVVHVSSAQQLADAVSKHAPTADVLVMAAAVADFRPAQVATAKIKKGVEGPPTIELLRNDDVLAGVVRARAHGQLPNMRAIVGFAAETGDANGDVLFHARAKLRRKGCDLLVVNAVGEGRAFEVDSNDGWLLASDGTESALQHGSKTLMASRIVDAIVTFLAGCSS
UniProt Q8IDJ8, 1-583: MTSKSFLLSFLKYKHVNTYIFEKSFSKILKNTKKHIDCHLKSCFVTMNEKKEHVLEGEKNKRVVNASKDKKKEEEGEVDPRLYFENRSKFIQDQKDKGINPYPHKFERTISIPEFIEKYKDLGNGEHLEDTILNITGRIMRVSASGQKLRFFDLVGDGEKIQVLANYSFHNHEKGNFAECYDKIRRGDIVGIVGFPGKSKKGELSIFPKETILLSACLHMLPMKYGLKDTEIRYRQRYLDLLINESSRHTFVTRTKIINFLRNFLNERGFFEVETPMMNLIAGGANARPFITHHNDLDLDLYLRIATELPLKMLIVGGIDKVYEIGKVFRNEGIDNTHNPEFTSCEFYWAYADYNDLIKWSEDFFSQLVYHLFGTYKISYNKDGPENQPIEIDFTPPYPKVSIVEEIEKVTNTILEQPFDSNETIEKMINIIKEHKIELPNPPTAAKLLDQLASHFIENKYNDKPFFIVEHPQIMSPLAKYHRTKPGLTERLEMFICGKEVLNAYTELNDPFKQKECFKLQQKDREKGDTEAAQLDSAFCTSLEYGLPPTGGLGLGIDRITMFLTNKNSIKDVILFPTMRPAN

Each number is a percent effect as filed. The controls that fix the scale are not given in the record; negative values are as filed. This is an unselected part of the compounds tested. Two or more numbers in one place are separate tests of the same structure; such repeats can differ widely. A dash means the value is not listed here; it may have been measured.

compound	A	B	C	D
O=S(=O)(C1CC1)N1CCC2(COCc3cnc(NCC4CC4)nc32)C1 (stereo not given)	-9.707	0.1233	6.221	-14.46
COc1cc(N2CCC3(CC2)CN(S(C)(=O)=O)c2ccccc23)ncn1	-9.574	6.182	4.132	31.21
O=C(O)C(F)(F)F.c1csc(CN2CCC3(CCCN(c4nncs4)C3)C2)n1 (stereo not given)	-	-	-	-23.12
COc1cc(C(=O)NCC2CCCO2)nc2c(C)cc(F)cc12 (stereo not given)	3.493	0.3645	-1.857	20.31
COCCCN1CCC(c2nc3c([nH]2)CC(C)(C)CNC3=O)C1 (stereo not given)	6.325	4.931	3.598	6.434
Cc1cnc(CCN(C)C(=O)c2cccc(N(C)C)c2)s1	-9.635	-0.1267	-2.898	10.82
Cc1cnn(CC2CCCCN2Cc2cc(C)no2)c1 (stereo not given)	-24.47	-1.279	-0.5203	20.03
CCC[C@]12CN3C[C@](CCC)(CN(C1)C3c1[nH]c(=O)[nH]c(=O)c1C)C2=O (stereo not given in full)	-7.114	-1.211	-0.9228	-7.072
CCc1ccc(CN2CCN(c3ccc(C#N)cc3)C(=O)C2)nc1	-7.037	3.406	5.958	20.32
OC(CN1CCC(c2ccn[nH]2)CC1)c1ccc(F)cc1F (stereo not given)	-7.384	20.39 and 11.86	-1.328	25.11
COc1ccc(-c2ccnc(C3CCNCC3)c2)cc1	4.867	0.2433	1.19	-
Cl.Clc1ccccc1OCCc1cc(C2CCNC2)n[nH]1 (stereo not given)	-	-	-	25.14 and 12.8
O=C(O)C(F)(F)F.O=C1NC2(CCN(c3ncccn3)CC2)CC1c1cccnc1 (stereo not given)	-	-	-	13.83
Cn1c(=O)[nH]c2cc(C(=O)OCC(F)F)ccc21	-2.686	1.202	-0.07127	-8.334
NC(=O)CNC1(c2ccc(Br)cc2)CCOCC1	2.634	-5.841	0.4569	34.51
COc1ccc(N2CCCC3(C2)CN(c2cccnc2)CCO3)cc1.O=C(O)C(F)(F)F (stereo not given)	-	-	-	26.02
Cc1cnc(N)nc1N1CCN(CCCO)CC1	-24.05	6.087	1.905	23.01
O=C(Cn1cnnn1)N1CCCCC1Cn1cccn1 (stereo not given)	-2.326	3.085	2.785	-9.581
CN(C(=O)c1ccc[nH]1)C1CC(=O)N(Cc2ccccc2)C1=O (stereo not given)	-19.57	1.709	-0.3101	9.663
Cc1ccc(S(=O)(=O)N2CCN(CCC#N)CC2)s1	23.9	-1.01	3.027	34.19
C1CCC(OCCN2CCN(CCOC3CCCCC3)CC2)CC1	-14.62	1.613	0.02454	20.23
[H][C@@]12CCCO[C@]1([H])[C@H](N(C)Cc1cccnc1)CN2c1ncc(F)cn1	-	-	-	-6.19
O=S(=O)(CCN1CCc2c(ncn2C2CC2)C1)c1ccccc1	-15.91	3.133	-1.214	24.33
NC(=O)CN1CCCC(c2nccnc2Oc2cccc(F)c2)C1 (stereo not given)	-5.451	0.1239	0.8443	4.885
CCC(=O)N(C)Cc1cccc(OC(C)C)c1	-0.06705	4.762	1.164	-103.3
O=C1[C@H]2CN(Cc3ccc(F)cc3)C[C@H]2CN1c1ccsc1	19.32	-11.97	6.087	-
CCc1nnc2n1CCN(CC(O)c1ccc3c(c1)OCCO3)C2 (stereo not given)	-10.55	7.846	-2.295	-7.197
Cc1occc1C(=O)N1C[C@@H]2CCCO[C@@H]2[C@H](NS(C)(=O)=O)C1	15.1	0.7426	3.47	-
CN(c1ccc2ccccc2c1)S(=O)(=O)c1cc(C(=O)O)cs1	8.18	-1.606	4.055	1.818
CCS(=O)(=O)NCCCNC(=O)N(C)C(C)c1ccccn1 (stereo not given)	3.248	0.4132	3.163	5.985
Cc1cc(C[C@@H]2COC[C@H]2NCc2ccccc2C(F)(F)F)on1.O=C(O)CC(O)(CC(=O)O)C(=O)O	-	-	-	-26.94
CC(C)c1nc(CN(C)C(=O)c2ccccc2C2CCNC2)cs1 (stereo not given)	7.452	4.37	1.846	13.92
O=C(O)C(F)(F)F.[H][C@]12CN(Cc3cccc(C)c3)C[C@@]1([H])S(=O)(=O)CC[C@@H]2C(=O)NCC(C)C	-	-	-	1.629
N#Cc1cnn(CCN2CCOC(CNc3cccnn3)C2)c1 (stereo not given)	4.319	0.4914	0.6702	1.115
O=C(Cn1cccnc1=O)NC(Cc1ccsc1)c1cccnc1 (stereo not given)	-2.937	2.696	-0.2017	-1.407
Cc1nc2n(n1)CC(NCc1csc(-c3ccsc3)n1)CC2 (stereo not given)	-28.65	1.316	2.068	1.329
CC1CCCN(c2ccccc2OCC(=O)NC2CCOCC2)C1 (stereo not given)	8.103	-0.4032	-5.8	-21.45
CC(C)c1ncc2c(n1)CN(Cc1nc(-c3ccsc3)no1)CC2	-31.31	7.171	0.7673	37.22
COC(=O)N1CC2(CCNCC2)c2cc(Cl)ccc21	2.474	0.9412	0.547	-
[H][C@]12CN(Cc3ccc(F)cc3)C[C@@]1([H])S(=O)(=O)CC[C@@H]2C(=O)N1CCCC1	-	-	-	8.367
CNC(=O)CN1CC[C@H]2CN(C(=O)c3ccc(C)nc3)C[C@H]2C1	-9.705	3.817	4.451	-
CC(C)NC(=O)Nc1ccc(-c2nc(C(C)C)no2)cc1	-5.378	0	1.048	-3.03
Cc1nc(C)n(CC2CCCN2Cc2cn3ccsc3n2)n1 (stereo not given)	28.7	6.218	-4.595	15.32
O=C(O)C(F)(F)F.[H][C@@]12CN(C(=O)c3ccc(O)cc3)C[C@]1([H])OCCN2c1ncccn1	-	-	-	-4.213
Cc1cnn(C2CN(CCOc3ccccc3C#N)C2)c1	-14.23	0.6289	2.596	7.352
COCCN(C/C=C/c1ccccc1)Cc1ncc[nH]1	-9.611	17.93	1.415	19.42
CCN1CCC(CNC(=O)Nc2cc(C)on2)C1 (stereo not given)	-2.46	0.5222	2.676	7.323
Cc1nnc(N2C[C@H](C(=O)NCc3ccco3)[C@@H]3CCO[C@@H]3C2)s1	2.307	14.53	2.902	-
CC1CCN(C(=O)c2cn(-c3cc(N4CCOCC4)ncn3)cn2)CC1	5.204	6.617	4.13	35.23
CCNc1cc2c(nn1)CCN(C(=O)C1COc3ccccc3C1)C2 (stereo not given)	-2.879	6.367	2.297	21.45
CC(C)NC(=O)[C@H]1CCS(=O)(=O)[C@@H]2CN(c3ncccn3)C[C@H]12	-15.81	4.575	-1.326	-
Cc1noc(OCc2ccc(C#N)cc2)n1	-6.117	4.902	3.19	-31.56
CC(C)C[C@H](N)C(=O)N1CCSc2ccccc2C1.Cl	-	-	-	18.31
COc1ncc(NC(=O)c2ccco2)c(OC)n1	-2.667	-6.131	4.267	-6.252 and 0.4051
COc1cc(C(=O)N2CCCC2c2noc(C(C)C)n2)on1 (stereo not given)	-21.77	6.6	-0.5166	13.24
CN(C)CCO[C@H]1CN(C(=O)c2cscn2)[C@@H]2COC[C@H]12	5.755	-11.34	6.729	-
COc1c(CNC2CCN(C(C)(C)C)CC2)c(C(C)C)nn1C	-0.2117	4.174	-0.4309	42.11
COc1ccnc(C(=O)N2CCCC(c3noc(C)n3)C2)c1 (stereo not given)	7.121	3.085	7.857	-6.177
CN(C)C(=O)N[C@H]1CN(Cc2ccc3c(c2)OCO3)[C@@H]2CCCO[C@H]12	-7.621	3.059	0.3525	-
O=C(Nc1ccc(-c2csnn2)cc1)N1CCC(N2CCCC2)C1 (stereo not given)	1.771	-0.9615	1.782	-1.227
Cc1cccc(N2CC[C@@H]3[C@@H](CO[C@H]3CNC(=O)c3ccco3)C2)n1	17.61	2.648	7.666	-
Cc1ccncc1C(=O)N1CC[C@@]2(O)CCN(C3CCCCC3)C[C@H]2C1	-8.869	7.944	-0.6149	-
CC(=O)Cn1ncc(N2CCOCC2)cc1=O	4.638	-1.151	0	4.61
CS(=O)(=O)CC(=O)NCC1OCCc2cn(CC3CC3)nc21 (stereo not given)	-10.77	5.263	1.358	11.32 and -0.9478
Cn1cccc(NC(=O)COc2ccc(Br)cc2)c1=O	6.82	-5.691	1.719	1.331
O=C(CCc1ccccn1)N1CCN(C(=O)CC2CCCCC2)CC1	16.11	5.128	2.553	19.46
Brc1csc(CNCc2nnc3n2CCC3)c1	-4.974	3.171	0.3302	1.413
CCn1ncc2c1NC(=O)CC2c1cnc(NCc2ccccc2)nc1 (stereo not given)	-5.32	11.98	-1.947	-8.305

5 of the entries, repeated:

{"compound": "O=S(=O)(CCN1CCc2c(ncn2C2CC2)C1)c1ccccc1", "A": -15.91, "B": 3.133, "C": -1.214, "D": 24.33}
{"compound": "O=C(Cn1cccnc1=O)NC(Cc1ccsc1)c1cccnc1", "stereo": "stereo not given", "A": -2.937, "B": 2.696, "C": -0.2017, "D": -1.407}
{"compound": "COc1ccc(-c2ccnc(C3CCNCC3)c2)cc1", "A": 4.867, "B": 0.2433, "C": 1.19}
{"compound": "Cc1occc1C(=O)N1C[C@@H]2CCCO[C@@H]2[C@H](NS(C)(=O)=O)C1", "A": 15.1, "B": 0.7426, "C": 3.47}
{"compound": "COCCN(C/C=C/c1ccccc1)Cc1ncc[nH]1", "A": -9.611, "B": 17.93, "C": 1.415, "D": 19.42}

Source: ChEMBL document CHEMBL3988442, “University of Dundee, Small-Polar-MMV Screening Library” (2021).